In PMC9426605:
Results are given in words; binding and its absence hold for the method and conditions named. Some results given as binding are weak or reduced against the parent protein; the word gives no strength. Where a sequence is shown, tags or fusion partners need not be part of it.

Key:
Experiment in all cases: two-hybrid; bacterial two-hybrid, pKT25 and pUT18 derivatives cotransformed in E. coli BTH101, 30°C, 0.5 mM IPTG; spots on X-Gal plates and β-galactosidase activity against MUG; positive cutoff 4-fold greater than T18/T25
[1] = target: T1, DivIB (S. aureus) (UniProt Q2FZ91)
T1 sequence: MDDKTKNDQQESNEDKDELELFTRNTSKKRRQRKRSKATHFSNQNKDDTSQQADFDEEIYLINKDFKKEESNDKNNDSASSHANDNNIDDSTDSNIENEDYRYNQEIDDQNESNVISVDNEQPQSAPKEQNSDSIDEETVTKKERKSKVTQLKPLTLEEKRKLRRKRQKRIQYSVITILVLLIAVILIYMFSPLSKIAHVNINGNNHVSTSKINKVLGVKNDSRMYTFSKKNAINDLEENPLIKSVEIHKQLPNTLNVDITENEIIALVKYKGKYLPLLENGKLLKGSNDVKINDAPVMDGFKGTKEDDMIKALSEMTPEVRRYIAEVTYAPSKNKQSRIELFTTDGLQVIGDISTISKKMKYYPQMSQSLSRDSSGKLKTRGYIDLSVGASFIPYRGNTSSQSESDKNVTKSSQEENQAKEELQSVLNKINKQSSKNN

[2] = target: T2, EzrA (S. aureus) (UniProt Q2FXK8)
T2 sequence: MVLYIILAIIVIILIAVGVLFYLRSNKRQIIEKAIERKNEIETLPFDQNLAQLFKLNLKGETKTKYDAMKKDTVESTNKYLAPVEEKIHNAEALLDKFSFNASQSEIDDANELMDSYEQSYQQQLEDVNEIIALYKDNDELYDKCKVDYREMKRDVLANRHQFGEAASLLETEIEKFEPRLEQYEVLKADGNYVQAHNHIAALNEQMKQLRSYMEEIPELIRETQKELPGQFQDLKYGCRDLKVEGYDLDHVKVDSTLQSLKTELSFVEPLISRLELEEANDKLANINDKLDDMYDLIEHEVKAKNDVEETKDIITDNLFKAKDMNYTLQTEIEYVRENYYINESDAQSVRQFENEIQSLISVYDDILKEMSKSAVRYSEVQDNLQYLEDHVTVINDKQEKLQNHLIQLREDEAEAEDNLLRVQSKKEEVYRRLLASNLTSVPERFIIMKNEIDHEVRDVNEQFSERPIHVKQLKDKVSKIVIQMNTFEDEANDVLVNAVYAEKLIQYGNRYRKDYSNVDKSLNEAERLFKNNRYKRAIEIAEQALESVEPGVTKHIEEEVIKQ

[3] = target: T3, PBP2 (S. aureus) (UniProt Q2FYI0)
T3 sequence: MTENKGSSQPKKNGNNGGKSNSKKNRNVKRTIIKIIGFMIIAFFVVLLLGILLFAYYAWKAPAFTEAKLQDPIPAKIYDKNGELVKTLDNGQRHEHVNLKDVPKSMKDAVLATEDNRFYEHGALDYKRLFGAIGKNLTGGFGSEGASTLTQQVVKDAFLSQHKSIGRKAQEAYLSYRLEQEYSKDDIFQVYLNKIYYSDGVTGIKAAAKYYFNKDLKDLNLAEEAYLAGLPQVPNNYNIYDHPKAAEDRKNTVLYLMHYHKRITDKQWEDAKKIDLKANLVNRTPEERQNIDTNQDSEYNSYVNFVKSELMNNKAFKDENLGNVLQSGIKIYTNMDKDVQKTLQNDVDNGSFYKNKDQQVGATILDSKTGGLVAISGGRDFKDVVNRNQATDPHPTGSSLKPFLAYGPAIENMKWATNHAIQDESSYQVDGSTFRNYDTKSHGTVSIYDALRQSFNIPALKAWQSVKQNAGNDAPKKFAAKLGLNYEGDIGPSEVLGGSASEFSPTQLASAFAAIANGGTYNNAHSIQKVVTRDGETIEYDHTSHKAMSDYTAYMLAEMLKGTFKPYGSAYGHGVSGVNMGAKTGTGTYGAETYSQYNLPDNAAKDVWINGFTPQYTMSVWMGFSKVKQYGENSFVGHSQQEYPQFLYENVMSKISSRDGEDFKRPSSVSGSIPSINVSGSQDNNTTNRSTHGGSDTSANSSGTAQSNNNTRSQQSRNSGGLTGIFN

Measured: binding

B1: Penicillin-binding protein 1 (PBP1) of Staphylococcus aureus, T25 fusion (enzyme, UniProt Q2FZ94 1-744)
chain: MAKQKIKIKKNKIGAVLLVGLFGLLFFILVLRISYIMITGHSNGQDLVMKANEKYLVKNAQQPERGKIYDRNGKVLAEDVERYKLVAVIDKKASANSKKPRHVVDKKETAKKLSTVINMKPEEIEKRLSQKKAFQIEFGRKGTNLTYQDKLKIEKMNLPGISLLPETERFYPNGNFASHLIGRAQKNPDTGELKGALGVEKIFDSYLSGSKGSLRYIHDIWGYIAPNTKKEKQPKRGDDVHLTIDSNIQVFVEEALDGMVERYQPKDLFAVVMDAKTGEILAYSQRPTFNPETGKDFGKKWANDLYQNTYEPGSTFKSYGLAAAIQEGAFDPDKKYKSGHRDIMGSRISDWNRVGWGEIPMSLGFTYSSNTLMMHLQDLVGADKMKSWYERFGFGKSTKGMFDGEAPGQIGWSNELQQKTSSFGQSTTVTPVQMLQAQSAFFNDGNMLKPWFVNSVENPVSKRQFYKGQKQIAGKPITKDTAEKVEKQLDLVVNSKKSHAANYRIDGYEVEGKTGTAQVAAPNGGGYVKGPNPYFVSFMGDAPKKNPKVIVYAGMSLAQKNDQEAYELGVSKAFKPIMENTLKYLNVGKSKDDTSNAEYSKVPDVEGQDKQKAIDNVSAKSLEPVTIGSGTQIKAQSIKAGNKVLPHSKVLLLTDGDLTMPDMSGWTKEDVIAFENLTNIKVNLKGSGFVSHQSISKGQKLTEKDKIDVEFSSENVDSNSTNNSDSNSDDKKKSDSKTDKDKSD
binds: all assays above

B2: T25-PBP1_(ΔPASTA): S. aureus PBP1 without the PASTA domains (M1-S595) (domain or fragment, UniProt Q2FZ94 1-595)
chain: MAKQKIKIKKNKIGAVLLVGLFGLLFFILVLRISYIMITGHSNGQDLVMKANEKYLVKNAQQPERGKIYDRNGKVLAEDVERYKLVAVIDKKASANSKKPRHVVDKKETAKKLSTVINMKPEEIEKRLSQKKAFQIEFGRKGTNLTYQDKLKIEKMNLPGISLLPETERFYPNGNFASHLIGRAQKNPDTGELKGALGVEKIFDSYLSGSKGSLRYIHDIWGYIAPNTKKEKQPKRGDDVHLTIDSNIQVFVEEALDGMVERYQPKDLFAVVMDAKTGEILAYSQRPTFNPETGKDFGKKWANDLYQNTYEPGSTFKSYGLAAAIQEGAFDPDKKYKSGHRDIMGSRISDWNRVGWGEIPMSLGFTYSSNTLMMHLQDLVGADKMKSWYERFGFGKSTKGMFDGEAPGQIGWSNELQQKTSSFGQSTTVTPVQMLQAQSAFFNDGNMLKPWFVNSVENPVSKRQFYKGQKQIAGKPITKDTAEKVEKQLDLVVNSKKSHAANYRIDGYEVEGKTGTAQVAAPNGGGYVKGPNPYFVSFMGDAPKKNPKVIVYAGMSLAQKNDQEAYELGVSKAFKPIMENTLKYLNVGKSKDDTS
binds: all assays above
